# Experimental data taken from the supplement of paper PMC8728848.
# This is one part of the list.
# B1: HA-61200 (Pseudomonas aeruginosa), Q02SP8_PSEAB (protein)
# chain: MNKCYALVWNVSQGCWNVVSEGSRRRGKPAGAKAAIASVLALLGATALAPAYALPSGGTVVGGSANGEIHLSGGNSLSVNQKVDKLIANWDSFSVAAGERVIFNQPSSSSIALNRVIGTKASDIQGRIDANGQVFLVNPNGVLFGRGAQVNVGGLVASTLDITDAEFNGNSSRYRFTGPSTNGVLNHGGAITAAEGGSIALLGAQVDNRGTVLAQMGGVGLGAGSDLTLNFDGNKLLDIRVDAGVANALASNGGLLKADGGRVLMAARTANALLNTVVNSQGAIEARSLRGKNGRIVLDG
# Key:
# Assay in all cases: glycan array binding signal (z-score within array); higher = stronger binding
# Settings in all cases: glycan notation: IUPAC condensed, linker removed
# [1] = target: GlcNAc(b1-4)GlcNAc(b1-4)GlcNAc(b1-4)GlcNAc(b1-4)GlcNAc
# Procedure, shortened: (§1)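 Negative Z-scores can be read as non-binding. The Z-score is calculated within each array and then averaged across arrays of one protein sequence at different concentrations or buffers and across linkers. Arrays, 3228 in all, were curated from the Consortium for Functional Glycomics database and kept only where the protein sequence was available.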
# [2] = target: GlcNAc(b1-4)GlcNAc(b1-4)GlcNAc(b1-4)GlcNAc(b1-4)GlcNAc(b1-4)GlcNAc
# Procedure, shortened: as §1
# [3] = target: GlcNAc(b1-4)[GlcNAc(b1-6)]GalNAc
# Procedure, shortened: as §1
# [4] = target: GlcNAc(b1-6)Gal(b1-4)GlcNAc
# Procedure, shortened: as §1
# GlcNAc(b1-6)GalNAc = target: GlcNAc(b1-6)GalNAc
# Procedure, shortened: as §1
# [5] = target: GlcNAc6S(b1-3)Gal(b1-4)GlcNAc
# Procedure, shortened: as §1
# Kdn(a2-3)Gal(b1-3)GalNAc = target: Kdn(a2-3)Gal(b1-3)GalNAc
# Procedure, shortened: as §1
# Kdn(a2-3)Gal(b1-3)GlcNAc = target: Kdn(a2-3)Gal(b1-3)GlcNAc
# Procedure, shortened: as §1
# Kdn(a2-3)Gal(b1-4)Glc = target: Kdn(a2-3)Gal(b1-4)Glc
# Procedure, shortened: as §1
# Kdn(a2-3)Gal(b1-4)GlcNAc = target: Kdn(a2-3)Gal(b1-4)GlcNAc
# Procedure, shortened: as §1
# [6] = target: Kdn(a2-3)Gal(b1-4)[Fuc(a1-3)]GlcNAc
# Procedure, shortened: as §1
# Kdn(a2-6)Gal(b1-4)GlcNAc = target: Kdn(a2-6)Gal(b1-4)GlcNAc
# Procedure, shortened: as §1
# [7] = target: Man(a1-2)Man(a1-2)Man(a1-3)Man
# Procedure, shortened: as §1
# [8] = target: Man(a1-2)Man(a1-2)Man(a1-6)[Man(a1-3)]Man
# Procedure, shortened: as §1
# Man(a1-2)Man(a1-3)Man = target: Man(a1-2)Man(a1-3)Man
# Procedure, shortened: as §1
# [9] = target: Man(a1-2)Man(a1-3)[Man(a1-2)Man(a1-6)]Man
# Procedure, shortened: as §1
# [10] = target: Man(a1-2)Man(a1-3)[Man(a1-2)Man(a1-6)]Man(a1-6)[Man(a1-2)Man(a1-2)Man(a1-3)]Man
# Procedure, shortened: as §1
# [11] = target: Man(a1-2)Man(a1-3)[Man(a1-2)Man(a1-6)]Man(a1-6)[Man(a1-2)Man(a1-2)Man(a1-3)]Man(b1-4)GlcNAc(b1-4)GlcNAc
# Procedure, shortened: as §1
# [12] = target: Man(a1-2)Man(a1-3)[Man(a1-6)]Man(a1-6)[Man(a1-2)Man(a1-3)]Man(b1-4)GlcNAc(b1-4)GlcNAc
# Procedure, shortened: as §1
# [13] = target: Man(a1-2)Man(a1-6)[Man(a1-3)]Man(a1-6)[Man(a1-2)Man(a1-2)Man(a1-3)]Man
# Procedure, shortened: as §1
# [14] = target: Man(a1-2)Man(a1-6)[Man(a1-3)]Man(a1-6)[Man(a1-2)Man(a1-2)Man(a1-3)]Man(b1-4)GlcNAc(b1-4)GlcNAc
# Procedure, shortened: as §1
# Man(a1-3)[Man(a1-6)]Man = target: Man(a1-3)[Man(a1-6)]Man
# Procedure, shortened: as §1
# [15] = target: Man(a1-3)[Man(a1-6)]Man(a1-6)[Man(a1-2)Man(a1-3)]Man(b1-4)GlcNAc(b1-4)GlcNAc
# Procedure, shortened: as §1
# [16] = target: Man(a1-3)[Man(a1-6)]Man(a1-6)[Man(a1-3)]Man
# Procedure, shortened: as §1
# [17] = target: Man(a1-3)[Man(a1-6)]Man(a1-6)[Man(a1-3)]Man(b1-4)GlcNAc(b1-4)GlcNAc
# Procedure, shortened: as §1
# [18] = target: Man(a1-3)[Man(a1-6)]Man(b1-4)GlcNAc(b1-4)GlcNAc
# Procedure, shortened: as §1
# [19] = target: Man(a1-3)[Man(a1-6)]Man(b1-4)GlcNAc(b1-4)[Fuc(a1-6)]GlcNAc
# Procedure, shortened: as §1
# Man(a1-6)Man = target: Man(a1-6)Man
# Procedure, shortened: as §1
# Man(b1-4)GlcNAc = target: Man(b1-4)GlcNAc
# Procedure, shortened: as §1
# MurNAc(b1-4)GlcNAc = target: MurNAc(b1-4)GlcNAc
# Procedure, shortened: as §1
# Neu5Ac(a2-3)Gal = target: Neu5Ac(a2-3)Gal
# Procedure, shortened: as §1
# [20] = target: Neu5Ac(a2-3)Gal(b1-3)GalNAc
# Procedure, shortened: as §1
# [21] = target: Neu5Ac(a2-3)Gal(b1-3)GalNAc(b1-3)Gal(a1-4)Gal(b1-4)Glc
# Procedure, shortened: as §1
# [22] = target: Neu5Ac(a2-3)Gal(b1-3)GalNAc(b1-4)Gal(b1-4)Glc
# Procedure, shortened: as §1
# [23] = target: Neu5Ac(a2-3)Gal(b1-3)GalNAc(b1-4)[Neu5Ac(a2-3)]Gal(b1-4)Glc
# Procedure, shortened: as §1
# [24] = target: Neu5Ac(a2-3)Gal(b1-3)GalNAc(b1-4)[Neu5Ac(a2-8)Neu5Ac(a2-3)]Gal(b1-4)Glc
# Procedure, shortened: as §1
# [25] = target: Neu5Ac(a2-3)Gal(b1-3)GalNAc6S
# Procedure, shortened: as §1
binder,measurement,setting,value
B1,glycan array binding signal (z-score),[1],0.132
same,glycan array binding signal (z-score),[2],0.137
same,glycan array binding signal (z-score),[3],0.797
same,glycan array binding signal (z-score),[4],-0.529
same,glycan array binding signal (z-score),GlcNAc(b1-6)GalNAc,0.187
same,glycan array binding signal (z-score),[5],0.69
same,glycan array binding signal (z-score),Kdn(a2-3)Gal(b1-3)GalNAc,-0.393
same,glycan array binding signal (z-score),Kdn(a2-3)Gal(b1-3)GlcNAc,-0.687
same,glycan array binding signal (z-score),Kdn(a2-3)Gal(b1-4)Glc,-0.912
same,glycan array binding signal (z-score),Kdn(a2-3)Gal(b1-4)GlcNAc,0.32
same,glycan array binding signal (z-score),[6],1.87
same,glycan array binding signal (z-score),Kdn(a2-6)Gal(b1-4)GlcNAc,-0.106
same,glycan array binding signal (z-score),[7],-0.132
same,glycan array binding signal (z-score),[8],-0.079
same,glycan array binding signal (z-score),Man(a1-2)Man(a1-3)Man,-0.703
same,glycan array binding signal (z-score),[9],-0.334
same,glycan array binding signal (z-score),[10],0.009
same,glycan array binding signal (z-score),[11],-0.76
same,glycan array binding signal (z-score),[12],-0.706
same,glycan array binding signal (z-score),[13],-1.34
same,glycan array binding signal (z-score),[14],-0.59
same,glycan array binding signal (z-score),Man(a1-3)[Man(a1-6)]Man,-0.522
same,glycan array binding signal (z-score),[15],-0.418
same,glycan array binding signal (z-score),[16],-0.929
same,glycan array binding signal (z-score),[17],1.41
same,glycan array binding signal (z-score),[18],-0.272
same,glycan array binding signal (z-score),[19],-0.504
same,glycan array binding signal (z-score),Man(a1-6)Man,-0.102
same,glycan array binding signal (z-score),Man(b1-4)GlcNAc,0.051
same,glycan array binding signal (z-score),MurNAc(b1-4)GlcNAc,-0.605
same,glycan array binding signal (z-score),Neu5Ac(a2-3)Gal,-0.698
same,glycan array binding signal (z-score),[20],-1
same,glycan array binding signal (z-score),[21],-0.529
same,glycan array binding signal (z-score),[22],-0.132
same,glycan array binding signal (z-score),[23],-0.582
same,glycan array binding signal (z-score),[24],-0.261
same,glycan array binding signal (z-score),[25],-0.771

# 3 entries picked at random from those above:
binder,measurement,setting,value
B1,glycan array binding signal (z-score),Man(b1-4)GlcNAc,0.051
same,glycan array binding signal (z-score),[11],-0.76
same,glycan array binding signal (z-score),[13],-1.34
